In all, about 140,000 compounds went through this assay and about 4,300 (3.1%) were called active. Inconclusive means that the source gave no clear call. Such entries were picked first, then a sample of the others.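 Rule for the calls: active = readout at or below -70, meaning at least 70% loss of cells showing the perinucleolar compartment, a nuclear body marking cancer cells; inconclusive = readout between -30 and a set limit; inactive = the rest.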
assay: High Content Assay for Compounds that inhibit the Assembly of the Perinucleolar Compartment; settings: PC3M PTB-GFP, PNC prevalence imaging, 16 h; at 10 µM; stronger effect = lower value;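 note: plate controls were DMSO wells for no effect and camptothecin positive control wells for full effect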
How it was run: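 Read-out is percentage of cells bearing a perinucleolar compartment, from automated 20x imaging of fixed, Hoechst-stained PC3M PTB-GFP cells. Cells were seeded 4 h, then exposed 16 h to compound (23 nl of library stock) in duplicate plates.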

Row | Compound | activity change (PNC), negative = inhibition
1 | CN(Cc1ccccc1)S(=O)(=O)c1ccc(NC(=O)C2CCCO2)cc1 (stereo not given) | inconclusive: -35.6%
2 | CC(C)c1nnc(SCc2ccc(CSc3nnc(C(C)C)n3N)cc2)n1N | inconclusive: -48.2%
3 | CC(=O)c1c(C)nc2cc(Cl)ccc2c1N | active: -95%
4 | CCOC(=O)c1ccccc1NC(=O)CSc1nccn1C | active: -100%
5 | Cn1c(=O)cc(OCC(=O)N2CCN(c3cccc(C(F)(F)F)c3)CC2)c2ccccc21 | inconclusive: -37.5%
6 | COc1ccc(CC(=O)Nc2cccc(-c3cn4ccccc4n3)c2)cc1 | inconclusive: -62.3%
7 | CCOc1ccccc1NC(=O)c1ccc(Cl)c(NC(=O)CC(c2ccccc2)c2ccccc2)c1 | inconclusive: -44.4%
8 | CCn1c(SCC(=O)N2c3ccccc3CCc3ccccc32)nnc1-c1ccc(OC)cc1 | inconclusive: -39.6%
9 | COc1ccc(C(=O)/C=C/c2ccc(OC3CSC3)cc2)cc1OC | inactive: 25.8%
10 | Cc1cc(C)c(S(=O)(=O)Nc2ccc3c(c2)CCC3)c(C)c1 | active: -89.1%
11 | O=C(Cc1coc2ccc3ccccc3c12)N1CCCC1 | inactive: 2.63%
12 | CSc1nc2nc3c(c(=O)n2[nH]1)CCCC3 | inconclusive: -36.6%
13 | CCOC(=O)c1cccc(NC(=O)/C=C/c2cccc([N+](=O)[O-])c2)c1 | inactive: 73.1%
14 | Cc1ccn(CC(=O)O)c(=O)c1 | inconclusive: -38.1%
15 | Nc1ccc(-c2cc(N)n(-c3ccccc3)n2)cc1 | inconclusive: -42.5%
16 | c1ccc(COc2ccc(OCCCN3CCCCC3)cc2)cc1 | inconclusive: -54.2%
17 | O=C(COC(=O)C1CCCCC1)NCCc1ccccc1 | inconclusive: -34.6%
18 | CCOC(=O)CSc1nc2ccccc2n2cnnc12 | inconclusive: -46.9%
19 | Cc1[nH]c2c(Cl)cccc2c1CCNC(=O)C1CCCCC1C(=O)OCC(F)(F)F (stereo not given) | active: -119%
20 | COCCNC(=O)c1ccc(NS(=O)(=O)c2cc(C)ccc2C)cc1 | inconclusive: -40.9%

Row | Compound | activity change (PNC), negative = inhibition
21 | Cc1ccc(NS(=O)(=O)c2cc(C(=O)N3CCc4ccccc4C3)ccc2Cl)cc1 | inactive: -5.75%
22 | O=C(Cn1c(SCC(=O)N2CCCc3ccccc32)nc2ccccc21)N1CCCC1 | active: -100%
23 | N#Cc1ccc(N2CCN(C(=O)c3cccc(F)c3)CC2)c(F)c1 | inactive: 34.6%
24 | COc1cccc(/C=C2\N=C(c3c(-c4ccccc4)noc3C)OC2=O)c1 | inconclusive: -37.1%
25 | CC(C)Nc1nnc(SCC(=O)/C=C2\N(C)c3ccccc3C2(C)C)s1 | inconclusive: -55.9%
26 | Cc1ccc(Nc2ccc(C(N)=O)cc2[N+](=O)[O-])cc1 | inconclusive: -56%
27 | Cc1cccc2cc(C#N)c(SCC(=O)N3CC(=O)Nc4ccccc43)nc12 | active: -85.3%
28 | C=CCn1c(-c2cccc(Cl)c2)n[nH]c1=S | inconclusive: -42.1%
29 | NNC(=O)c1cnn(Cc2ccccc2)c1N | inactive: -22.4%
30 | CCC(C)(C(=O)NC1CCCCC1)N(C)C(=O)c1ccccn1 (stereo not given) | active: -106%
31 | COc1ccc(NC(=O)Nc2cc(C)ccc2OC)cc1 | active: -82.3%
32 | Cc1noc(C)c1COC(=O)CCOc1ccccc1 | inconclusive: -30.6%
33 | CCCOc1ccc(OCCSc2ncccn2)cc1 | inconclusive: -56.3%
34 | Oc1ccc(Cl)cc1C1=Nc2ccccc2N=C(c2ccco2)C1 | active: -100%
35 | CC1CCCCN1C(=O)CSCC(=O)Nc1nc(-c2cccs2)cs1 (stereo not given) | inconclusive: -32.8%
36 | COc1cccc(CC(=O)Nc2nccs2)c1 | inconclusive: -40%
37 | CC[n+]1c(/C=C/c2ccc(N(C)C)cc2)ccc2ccccc21 | inconclusive: -57.8%
38 | Cc1cc(C2=NNC(=NC3CCCCC3)SC2)c(C)n1-c1c(C)n(C)n(-c2ccccc2)c1=O | inconclusive: -34.8%
39 | Cn1c(SCC(=O)NCc2cccs2)nnc1-c1ccc(S(=O)(=O)N2CCCC2)cc1 | inactive: -19.4%
40 | C=CCOc1ccc(/C=N/N2C(=O)C(CC(=O)Nc3ccc(F)cc3F)SC2=NC)cc1 (stereo not given) | inconclusive: -40.4%

Row | Compound | activity change (PNC), negative = inhibition
41 | c1ccc2c(c1)OCCOCCOCCOCCOCCOc1ccccc1OCCOCCOCCO2 | inactive: 44.1%
42 | CCOP(=O)(c1ccccc1)C(O)c1ccc(Br)cc1 (stereo not given) | inconclusive: -31.5%
43 | CCCC(=O)c1cc(F)c(N2CCOCC2)cc1C | inactive: 19.5%
44 | CCN1C(=O)C(CC(=O)Nc2ccc(Br)cc2)N(CCCc2ccccc2)C1=S (stereo not given) | inactive: 54.8%
45 | CCCCNC(=O)c1ccc(N2CCOCC2)c(NS(=O)(=O)c2ccc(OC)cc2)c1 | inconclusive: -35.6%
46 | O=C(O)C1CCN(C(=O)NC2CCCCC2)CC1 | inactive: 28.5%
47 | Cc1cccnc1NCc1ccc(O)c2ncccc12 | inactive: -22%
48 | CCc1ccc(OCCOCC(O)CNC(C)CC)cc1 (stereo not given) | inconclusive: -42.2%
49 | Cc1ccc(C)c(-n2c(Cc3cccs3)n[nH]c2=S)c1 | inconclusive: -34.3%
50 | Cc1nn(CC(=O)NCCCN2CCOCC2)c(C)c1[N+](=O)[O-] | inconclusive: -36.8%
51 | CC(C)C(=O)Nc1cc(S(=O)(=O)Nc2ccc(Cl)cc2)ccc1Cl | inactive: -8.64%
52 | O=C(N/N=C/c1c[nH]c2ccccc12)C1CC1c1ccccc1 (stereo not given) | inconclusive: -31.6%
53 | O=S(=O)(Nc1ccc2c(c1)nc1n2CCOC1)c1ccccc1 | inconclusive: -36%
54 | Brc1ccc2ncnc(NCc3ccco3)c2c1 | inactive: -12.6%
55 | CCOC(=O)CNC(=O)c1ccc(C)cc1 | inactive: 8.2%
56 | Cc1cc(NC(=O)CN2CCOCC2)n(-c2nc3ccccc3s2)n1 | inactive: 28.8%
57 | COc1ccc(-c2noc(COc3ccc4c(c3)OCO4)n2)cc1OC | inconclusive: -73%
58 | O=C(NCCc1ccccc1)c1cc(S(=O)(=O)N2CCOCC2)ccc1F | inconclusive: -52.1%
59 | Cc1ccc2nc(N3C(=O)C(O)=C(C(=O)c4ccco4)C3c3cccs3)sc2c1 (stereo not given) | inactive: -10.7%
60 | O=C(CSc1nc2ccccc2c(=O)n1Cc1ccco1)c1ccccc1 | inconclusive: -51.2%

Laid out differently: 2 of the compounds above.
Row	Compound	activity change (PNC), negative = inhibition
59	Cc1ccc2nc(N3C(=O)C(O)=C(C(=O)c4ccco4)C3c3cccs3)sc2c1 (stereo not given)	inactive: -10.7%
60	O=C(CSc1nc2ccccc2c(=O)n1Cc1ccco1)c1ccccc1	inconclusive: -51.2%
